Sequences of proteins named here, by UniProt entry; tags and fusion partners are left off. A change or cut given only in a name is not applied to a line headed by its entry.
UniProt Q9W2U4: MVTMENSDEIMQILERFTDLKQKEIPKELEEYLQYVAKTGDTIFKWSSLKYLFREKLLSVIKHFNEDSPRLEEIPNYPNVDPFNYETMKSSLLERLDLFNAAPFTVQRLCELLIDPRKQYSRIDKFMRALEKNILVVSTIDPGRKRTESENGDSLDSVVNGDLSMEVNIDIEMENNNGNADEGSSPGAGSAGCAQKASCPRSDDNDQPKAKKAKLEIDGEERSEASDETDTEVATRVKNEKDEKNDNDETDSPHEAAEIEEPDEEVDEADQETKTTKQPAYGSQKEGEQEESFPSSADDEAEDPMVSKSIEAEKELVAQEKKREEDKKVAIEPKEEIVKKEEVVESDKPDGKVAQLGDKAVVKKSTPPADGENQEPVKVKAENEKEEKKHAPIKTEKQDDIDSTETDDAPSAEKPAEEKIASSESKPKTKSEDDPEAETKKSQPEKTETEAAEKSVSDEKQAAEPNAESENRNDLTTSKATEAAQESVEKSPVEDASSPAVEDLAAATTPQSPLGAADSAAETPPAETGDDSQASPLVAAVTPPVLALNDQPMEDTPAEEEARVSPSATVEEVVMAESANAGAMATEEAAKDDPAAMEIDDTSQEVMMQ

According to article PMC4354016, “Centromeric binding and activity of Protein Phosphatase 4” (Nature Communications, 2015):

Columns and labels:
[1] = molecular target: protein A-tagged Flfl expressed in Drosophila syncytial embryos (Drosophila melanogaster) (UniProt Q9VFS5); assay: affinity purification with mass spectrometry; protein A-tagged bait from 1 g transgenic Drosophila syncytial embryos, extraction buffer, DNase I, rabbit IgG Dynabeads, LC-MS/MS
[2] = molecular target: Protein A::Falafel (Drosophila melanogaster) (UniProt Q9VFS5); assay: affinity purification with mass spectrometry; protein A-tagged bait from ~10^9 D.Mel-2 cells, lysate in extraction buffer (50 mM HEPES pH 7.5, 0.5% NP-40), DNase I, rabbit IgG Dynabeads 2 h 4 °C, LC-MS/MS, Mascot
[3] = molecular target: T1, FLAG::CENP-C^ΔFIM (Drosophila melanogaster) (UniProt Q9VHP9); assay: affinity purification with mass spectrometry; FLAG::CENP-C^WT or FLAG::CENP-C^ΔFIM purified from ~10^9 stably transfected D.Mel-2 cells on anti-FLAG M2 magnetic beads; mass spectrometry
T1 sequence: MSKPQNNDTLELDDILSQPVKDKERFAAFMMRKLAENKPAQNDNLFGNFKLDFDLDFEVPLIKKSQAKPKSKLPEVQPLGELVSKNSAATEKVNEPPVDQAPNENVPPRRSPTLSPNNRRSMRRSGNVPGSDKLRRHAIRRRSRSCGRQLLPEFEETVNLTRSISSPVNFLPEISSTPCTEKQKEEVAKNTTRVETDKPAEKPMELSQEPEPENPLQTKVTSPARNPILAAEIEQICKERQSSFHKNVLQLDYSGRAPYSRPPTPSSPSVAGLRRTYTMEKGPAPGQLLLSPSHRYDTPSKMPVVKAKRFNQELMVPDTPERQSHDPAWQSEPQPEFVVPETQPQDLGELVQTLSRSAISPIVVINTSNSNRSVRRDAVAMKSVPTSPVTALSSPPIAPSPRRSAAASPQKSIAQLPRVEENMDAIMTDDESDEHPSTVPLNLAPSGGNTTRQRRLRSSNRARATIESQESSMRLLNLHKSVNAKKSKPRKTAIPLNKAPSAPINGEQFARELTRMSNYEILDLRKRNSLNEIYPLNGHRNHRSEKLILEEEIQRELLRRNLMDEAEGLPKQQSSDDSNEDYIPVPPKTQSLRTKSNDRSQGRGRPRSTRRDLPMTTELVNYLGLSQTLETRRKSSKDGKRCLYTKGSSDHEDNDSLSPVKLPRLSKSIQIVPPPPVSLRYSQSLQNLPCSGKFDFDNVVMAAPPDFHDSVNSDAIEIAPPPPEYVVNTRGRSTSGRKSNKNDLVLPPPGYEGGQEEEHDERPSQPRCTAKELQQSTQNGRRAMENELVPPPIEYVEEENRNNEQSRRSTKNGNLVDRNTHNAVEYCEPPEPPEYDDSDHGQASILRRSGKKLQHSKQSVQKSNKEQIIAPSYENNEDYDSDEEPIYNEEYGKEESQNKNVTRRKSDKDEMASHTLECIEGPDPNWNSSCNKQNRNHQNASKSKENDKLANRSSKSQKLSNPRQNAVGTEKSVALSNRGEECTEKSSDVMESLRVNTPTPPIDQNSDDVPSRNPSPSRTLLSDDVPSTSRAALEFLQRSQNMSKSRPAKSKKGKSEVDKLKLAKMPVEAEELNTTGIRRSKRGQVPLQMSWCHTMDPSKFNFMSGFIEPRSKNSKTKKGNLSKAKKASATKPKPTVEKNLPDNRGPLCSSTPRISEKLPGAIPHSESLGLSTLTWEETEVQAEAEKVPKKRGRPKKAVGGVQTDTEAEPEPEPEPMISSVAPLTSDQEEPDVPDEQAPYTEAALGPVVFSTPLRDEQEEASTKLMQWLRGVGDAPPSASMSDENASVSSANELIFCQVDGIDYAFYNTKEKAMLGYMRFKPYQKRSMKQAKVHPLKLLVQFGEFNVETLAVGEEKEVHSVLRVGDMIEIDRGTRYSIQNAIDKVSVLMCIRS

[4] = molecular target: protein A::Flfl^169–973 (Drosophila melanogaster) (UniProt Q9VFS5); assay: affinity purification with mass spectrometry; protein A-tagged bait from ~10^9 D.Mel-2 cells, lysate in extraction buffer (50 mM HEPES pH 7.5, 0.5% NP-40), DNase I, rabbit IgG Dynabeads 2 h 4 °C, LC-MS/MS, Mascot
[5] = molecular target: Protein A::Falafel (Drosophila melanogaster) (UniProt Q9VFS5); assay: as above; remark: listed apart in the source
[6] = molecular target: T2, protein A::Flfl^1–168 (Drosophila melanogaster) (UniProt Q9VFS5); assay: as above
T2 sequence: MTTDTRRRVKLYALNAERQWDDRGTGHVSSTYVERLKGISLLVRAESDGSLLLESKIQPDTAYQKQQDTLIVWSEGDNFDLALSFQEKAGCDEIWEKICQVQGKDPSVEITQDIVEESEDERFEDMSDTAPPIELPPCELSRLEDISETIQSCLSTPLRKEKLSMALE

[7] = molecular target: T3, protein A-tagged CENP-C expressed in Drosophila syncytial embryos (Drosophila melanogaster) (UniProt Q9VHP9); assay: affinity purification with mass spectrometry; protein A-tagged bait from 1 g transgenic Drosophila syncytial embryos, extraction buffer, DNase I, rabbit IgG Dynabeads, LC-MS/MS
T3 sequence: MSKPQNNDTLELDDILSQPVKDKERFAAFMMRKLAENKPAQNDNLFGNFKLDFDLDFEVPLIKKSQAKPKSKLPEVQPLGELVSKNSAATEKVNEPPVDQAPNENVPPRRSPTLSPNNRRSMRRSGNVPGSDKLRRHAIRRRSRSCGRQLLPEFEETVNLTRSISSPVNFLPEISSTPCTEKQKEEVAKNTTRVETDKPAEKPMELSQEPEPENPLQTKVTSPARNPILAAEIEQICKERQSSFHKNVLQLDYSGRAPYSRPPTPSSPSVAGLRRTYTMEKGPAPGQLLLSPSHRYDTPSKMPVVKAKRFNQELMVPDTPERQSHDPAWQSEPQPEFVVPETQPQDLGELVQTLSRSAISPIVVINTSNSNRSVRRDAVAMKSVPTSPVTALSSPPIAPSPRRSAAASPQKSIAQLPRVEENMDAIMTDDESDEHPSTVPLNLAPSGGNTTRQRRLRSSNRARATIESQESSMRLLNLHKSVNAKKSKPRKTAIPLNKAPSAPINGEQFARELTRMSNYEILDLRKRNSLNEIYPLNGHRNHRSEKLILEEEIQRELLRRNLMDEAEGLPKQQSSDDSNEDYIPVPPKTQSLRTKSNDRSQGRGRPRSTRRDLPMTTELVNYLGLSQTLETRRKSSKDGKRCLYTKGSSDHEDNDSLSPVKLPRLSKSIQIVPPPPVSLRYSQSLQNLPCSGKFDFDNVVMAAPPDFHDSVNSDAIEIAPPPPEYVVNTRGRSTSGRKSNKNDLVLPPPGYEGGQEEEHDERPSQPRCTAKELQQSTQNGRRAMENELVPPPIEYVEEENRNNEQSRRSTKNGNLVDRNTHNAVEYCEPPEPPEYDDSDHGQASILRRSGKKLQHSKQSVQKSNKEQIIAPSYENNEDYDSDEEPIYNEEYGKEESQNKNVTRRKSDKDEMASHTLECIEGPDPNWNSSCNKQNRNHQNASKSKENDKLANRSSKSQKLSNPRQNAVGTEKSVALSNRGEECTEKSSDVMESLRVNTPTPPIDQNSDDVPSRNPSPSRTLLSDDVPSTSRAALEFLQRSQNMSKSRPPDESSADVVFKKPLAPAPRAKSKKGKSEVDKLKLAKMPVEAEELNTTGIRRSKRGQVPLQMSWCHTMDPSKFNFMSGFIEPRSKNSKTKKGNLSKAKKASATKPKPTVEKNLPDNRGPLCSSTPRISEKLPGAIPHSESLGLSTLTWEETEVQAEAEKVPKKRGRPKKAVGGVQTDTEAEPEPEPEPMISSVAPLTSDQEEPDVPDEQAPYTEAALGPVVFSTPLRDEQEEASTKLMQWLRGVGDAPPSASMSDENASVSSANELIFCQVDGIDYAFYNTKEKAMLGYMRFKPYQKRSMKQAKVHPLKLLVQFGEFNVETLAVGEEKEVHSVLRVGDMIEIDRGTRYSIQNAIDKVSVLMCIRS

[8] = molecular target: T4, CENP-C::protein A (Drosophila melanogaster) (UniProt Q9VHP9); assay: affinity purification with mass spectrometry; protein A-tagged bait from ~10^9 D.Mel-2 cells, lysate in extraction buffer (50 mM HEPES pH 7.5, 0.5% NP-40), DNase I, rabbit IgG Dynabeads 2 h 4 °C, LC-MS/MS, Mascot
T4 sequence: T3 sequence

## R2, endogenous (from UniProt Q9W2U4)
[1]
  binding: binds
[2]
  binding: binds
[3]
  binding: no binding

B1: centromeric protein C (CENP-C), endogenous (protein, UniProt Q9VHP9 1-1411)
chain: T3 sequence
[1]
  binding: binds
[4]
  binding: no binding
[5]
  binding: binds
[6]
  binding: binds

B2: Falafel (Flfl), endogenous (protein, UniProt Q9VFS5 1-980)
chain: MTTDTRRRVKLYALNAERQWDDRGTGHVSSTYVERLKGISLLVRAESDGSLLLESKIQPDTAYQKQQDTLIVWSEGDNFDLALSFQEKAGCDEIWEKICQVQGKDPSVEITQDIVEESEDERFEDMSDTAPPIELPPCELSRLEDISETIQSCLSTPLRKEKLSMALESESYIKKLLNLFHVCEDLDNTEGLHHLFEIFKNIFLLNKNALFEIMFADDTIFDVVGCLEYDPSVSQPKKHRQYLKQLAKFREAVPIKNLDLLAKIHQTFRVQYIQDIILPTPSVFVEDNMLNTLSSFIFFNKVEIVTMIQDDERYLLDVFAVLTDPTTGDAKRRDTVLFLKEFCNYAQNLQPQGKDSFYKTLTCLGILQALELTLVMNDKKTKSASIDILTAIVEFSPLVVRNYTLNQANRPEVERMLLNIAIEQMLNDSEPELGIAVQLMGIVKILLEPENMLTEKGDFLNFFYKYSVQTLVAPVILNTIGDRPQNEDYQTAQLLGIVLDILSFCVEHHSYHIKNFLLQKDLLKRILVLMKSTHTFLVLGALRLLRKIIALKDEFYNRHIVKCNLFAPVVDAFIRNNGRYNLLESAILELFEFIKLEDIRTLCVYFVENFSKIFDEIEYVQTFKYLKNRYDQYQDRLKDRDKMENRTDGGLPIIRSGGRFRRDQRQMEEEEEMWFNEEDDFTEEIDTYNNVMKSVSEKNGPQTQNQQKSSPPHSTSPHSGLLGSLSTTASSTATSATSGAPVASGSSSPEAISADEQTQAAVHLAAAALQHHQQQQQQQQQNPFQQQTQPEIAELQQQLSSVEAPQSQELELSQSAAASASPTSSSSSLEASTSSSSASSSSSSSSSSSPPGSSAAASLCDSATVAAVAASQFLSTIATAMAASVTAAAATNSSPSISPAPAVSSPDIENADAQLPPSDDASSPASGEQDANSTEGTSSEADKTTAKKGLVDYESDSGEDDYEEDEYSEGPQAQKRARQA
[7]
  binding: binds
[8]
  binding: binds
[3]
  binding: no binding

Like-named read-outs stand apart in the source and are kept apart here. Results are given in words; binding and its absence hold for the method and conditions named. In cells and extracts the contact can be indirect. These calls come from enrichment with a bait or labelling near it, and not all partners need be listed. For some of these results: A no says only that the protein was not detected with the bait. For some of these results: Where a sequence is shown, tags or fusion partners need not be part of it.
